Test results as given in publication PMC11093223, “Cargo selective vesicle tethering: The structural basis for binding of specific cargo proteins by the Golgi tether component TBC1D23” (Science Advances, 2024).
These are yes or no findings as the source states them, for the method shown. In cells and extracts the contact can be indirect. A yes stands for co-enrichment or nearness to the bait. Other partners may have been found. For some of these results: Tags and fused reporters may be left off the sequences shown.

T1: GST-TBC1D23 (514 to 684) (mouse) (UniProt Q8K0F1)
T1 sequence: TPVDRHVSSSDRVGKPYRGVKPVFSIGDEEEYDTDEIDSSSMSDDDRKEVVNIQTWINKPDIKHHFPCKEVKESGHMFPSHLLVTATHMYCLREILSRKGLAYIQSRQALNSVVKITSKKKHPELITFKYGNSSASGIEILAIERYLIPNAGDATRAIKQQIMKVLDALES

T2: GST-TBC1D23 (1 to 513) (mouse) (UniProt Q8K0F1)
T2 sequence: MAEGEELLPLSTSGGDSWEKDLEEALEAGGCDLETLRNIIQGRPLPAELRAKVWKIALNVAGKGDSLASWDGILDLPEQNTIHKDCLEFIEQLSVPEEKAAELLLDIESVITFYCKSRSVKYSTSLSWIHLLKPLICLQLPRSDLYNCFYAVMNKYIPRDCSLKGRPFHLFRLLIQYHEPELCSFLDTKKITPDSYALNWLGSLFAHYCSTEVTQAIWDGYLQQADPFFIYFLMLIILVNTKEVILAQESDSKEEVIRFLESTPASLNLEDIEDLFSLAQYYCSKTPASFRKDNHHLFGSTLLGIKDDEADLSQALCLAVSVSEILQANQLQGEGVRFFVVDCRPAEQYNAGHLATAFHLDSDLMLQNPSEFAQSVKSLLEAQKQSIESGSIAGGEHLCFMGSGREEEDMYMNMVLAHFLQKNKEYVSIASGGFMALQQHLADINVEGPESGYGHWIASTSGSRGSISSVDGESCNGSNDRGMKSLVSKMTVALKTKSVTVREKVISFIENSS


What was measured:
[1] = molecular target: GST-TBC1D23 (559 to 684) (mouse) (UniProt Q8K0F1); experiment: affinity purification with mass spectrometry; GST-tagged bait (GST-CPD tail, GST-CIMPR tail, GST-TBC1D23 (559 to 684) or GST) on glutathione-Sepharose beads, 2 to 4 h at 4°C with precleared 293T cell lysate (50 mM tris pH 7.4, 150 mM NaCl, 1 mM EDTA, 5 mM 2-mercaptoethanol, 1% Triton X-100), elution with 1.5 M NaCl, MS; only the target …
[2] = molecular target: T1, GST-TBC1D23 (514 to 684) (mouse); experiment: affinity purification with mass spectrometry; GST-TBC1D23 (1 to 513) or (514 to 684) on glutathione-Sepharose beads, 2 h with precleared 293T cell lysate (25 mM tris-HCl pH 7.4, 150 mM NaCl, 1 mM EDTA, 1% Triton X-100), elution with 1.5 M NaCl, MS; only the target purified
[3] = molecular target: T2, GST-TBC1D23 (1 to 513) (mouse); experiment: as above

Binder | binding [2] | further results
Sec1/Munc18-family protein VPS45 (endogenous, 293T cell lysate) (protein, UniProt Q9NRW7 1-570) MNVVFAVKQYISKMIEDSGPGMKVLLMDKETTGIVSMVYTQSEILQKEVYLFERIDSQNREIMKHLKAICFLRPTKENVDYIIQELRRPKYTIYFIYFSNVISKSDVKSLAEADEQEVVAEVQEFYGDYIAVNPHLFSLNILGCCQGRNWDPAQLSRTTQGLTALLLSLKKCPMIRYQLSSEAAKRLAECVKQVITKEYELFEFRRTEVPPLLLILDRCDDAITPLLNQWTYQAMVHELLGINNNRIDLSRVPGISKDLREVVLSAENDEFYANNMYLNFAEIGSNIKNLMEDFQKKKPKEQQKLESIADMKAFVENYPQFKKMSGTVSKHVTVVGELSRLVSERNLLEVSEVEQELACQNDHSSALQNIKRLLQNPKVTEFDAARLVMLYALHYERHSSNSLPGLMMDLRNKGVSEKYRKLVSAVVEYGGKRVRGSDLFSPKDAVAITKQFLKGLKGVENVYTQHQPFLHETLDHLIKGRLKENLYPYLGPSTLRDRPQDIIVFVIGGATYEEALTVYNLNRTTPGVRIVLGGTTVHNTKSFLEEVLASGLHSRSKESSQVTSRSASRR |  | binding [1]: binds
WDR11 (endogenous, 293T cell lysate) (protein, UniProt Q9BZH6 1-1224) MLPYTVNFKVSARTLTGALNAHNKAAVDWGWQGLIAYGCHSLVVVIDSITAQTLQVLEKHKADVVKVKWARENYHHNIGSPYCLRLASADVNGKIIVWDVAAGVAQCEIQEHAKPIQDVQWLWNQDASRDLLLAIHPPNYIVLWNADTGTKLWKKSYADNILSFSFDPFDPSHLTLLTSEGIVFISDFSPSKPPSGPGKKVYISSPHSSPAHNKLATATGAKKALNKVKILITQEKPSAEFITLNDCLQLAYLPSKRNHMLLLYPREILILDLEVNQTVGVIAIERTGVPFLQVIPCFQRDGLFCLHENGCITLRVRRSYNNIFTTSNEEPDPDPVQELTYDLRSQCDAIRVTKTVRPFSMVCCPVNENAAALVVSDGRVMIWELKSAVCNRNSRNSSSGVSPLYSPVSFCGIPVGVLQNKLPDLSLDNMIGQSAIAGEEHPRGSILREVHLKFLLTGLLSGLPAPQFAIRMCPPLTTKNIKMYQPLLAVGTSNGSVLVYHLTSGLLHKELSIHSCEVKGIEWTSLTSFLSFATSTPNNMGLVRNELQLVDLPTGRSIAFRGERGNDESAIEMIKVSHLKQYLAVVFRDKPLELWDVRTCTLLREMSKNFPTITALEWSPSHNLKSLRKKQLATREAMARQTVVSDTELSIVESSVISLLQEAESKSELSQNISAREHFVFTDIDGQVYHLTVEGNSVKDSARIPPDGSMGSITCIAWKGDTLVLGDMDGNLNFWDLKGRVSRGIPTHRSWVRKIRFAPGKGNQKLIAMYNDGAEVWDTKEVQMVSSLRSGRNVTFRILDVDWCTSDKVILASDDGCIRVLEMSMKSACFRMDEQELTEPVWCPYLLVPRASLALKAFLLHQPWNGQYSLDISHVDYPENEEIKNLLQEQLNSLSNDIKKLLLDPEFTLLQRCLLVSRLYGDESELHFWTVAAHYLHSLSQEKSASTTAPKEAAPRDKLSNPLDICYDVLCENAYFQKFQLERVNLQEVKRSTYDHTRKCTDQLLLLGQTDRAVQLLLETSADNQHYYCDSLKACLVTTVTSSGPSQSTIKLVATNMIANGKLAEGVQLLCLIDKAADACRYLQTYGEWNRAAWLAKVRLNPEECADVLRRWVDHLCSPQVNQKSKALLVLLSLGCFFSVAETLHSMRYFDRAALFVEACLKYGAFEVTEDTEKLITAIYADYARSLKNLGFKQGAVLFASKAGAAGKDLLNELESPKEEPIEE | binds | 
C17orf75 (endogenous, 293T cell lysate) (protein, UniProt Q9HAS0 1-396) MLPSLQESMDGDEKELESSEEGGSAEERRLEPPSSSHYCLYSYRGSRLAQQRGDSEDGSPSGTNAETPSGDDFSLSLADTNLPSEVEPELRSFIAKRLSRGAVFEGLGNVASVELKIPGYRVGCYYCLFQNEKLLPETVTIDSERNPSEYVVCFLGGSEKGLELFRLELDKYIQGLKNNMNCEARGLESHIKSYLSSWFEDVVCPIQRVVLLFQEKLTFLLHAALSYTPVEVKESDEKTKRDINRFLSVASLQGLIHEGTMTSLCMAMTEEQHKSVVIDCSSSQPQFCNAGSNRFCEDWMQAFLNGAKGGNPFLFRQVLENFKLKAIQDTNNLKRFIRQAEMNHYALFKCYMFLKNCGSGDILLKIVKVEHEEMPEAKNVIAVLEEFMKEALDQSF | binds | 
golgin-97 (endogenous, 293T cell lysate) (protein, UniProt Q92805 1-767) MFAKLKKKIAEETAVAQRPGGATRIPRSVSKESVASMGADSGDDFASDGSSSREDLSSQLLRRNEQIRKLEARLSDYAEQVRNLQKIKEKLEIALEKHQDSSMRKFQEQNETFQANRAKMAEGLALALARKDQEWSEKMDQLEKEKNILTAQLQEMKNQSMNLFQRRDEMDELEGFQQQELSKIKHMLLKKEESLGKMEQELEARTRELSRTQEELMNSNQMSSDLSQKLEELQRHYSTLEEQRDHVIASKTGAESKITALEQKEQELQALIQQLSIDLQKVTAETQEKEDVITHLQEKVASLEKRLEQNLSGEEHLQELLKEKTLAEQNLEDTRQQLLAARSSQAKAINTLETRVRELEQTLQASEEQLQQSKGIVAAQETQIQELAAANQESSHVQQQALALEQQFLERTQALEAQIVALERTRAADQTTAEQGMRQLEQENAALKECRNEYERSLQNHQFELKKLKEEWSQREIVSVAMAQALEEVRKQREEFQQQAANLTAIIDEKEQNLREKTEVLLQKEQEILQLERGHNSALLQIHQLQAELEALRTLKAEEAAVVAEQEDLLRLRGPLQAEALSVNESHVTSRAMQDPVFQLPTAGRTPNGEVGAMDLTQLQKEKQDLEQQLLEKNKTIKQMQQRMLELRKTLQKELKIRPDNELFEVREKPGPEMANMAPSVTNNTDLTDAREINFEYLKHVVLKFMSCRESEAFHLIKAVSVLLNFSQEEENMLKETLEYKMSWFGSKPAPKGSIRPSISNPRIPWS |  | binding [3]: binds
